The other results are listed elsewhere or left out.

By UniProt entry, the sequences of proteins in these tests, tags left out.
UniProt Q0JBA9, entry or part of it: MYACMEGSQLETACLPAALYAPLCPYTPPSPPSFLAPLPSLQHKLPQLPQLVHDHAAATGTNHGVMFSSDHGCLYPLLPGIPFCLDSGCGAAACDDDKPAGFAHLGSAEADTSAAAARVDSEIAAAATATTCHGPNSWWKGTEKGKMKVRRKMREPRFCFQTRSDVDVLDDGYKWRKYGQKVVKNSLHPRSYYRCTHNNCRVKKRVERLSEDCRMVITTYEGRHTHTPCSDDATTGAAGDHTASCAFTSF

For the test, the target named is OsWRKY34 (Oryza sativa, UniProt Q0JBA9 1-250). The test can be described thus: protein-binding microarray (RPBM); PBS, 2% BSA, 51.3 ng/ul salmon testes DNA, 50 uM zinc acetate, 200 nM TF, 25 C, 1 h; high values mean tight binding. Particulars: protein: recombinant; tags: N-terminal polyhistidine and DsRed monomer fusion (pET32a); label: CyDye5-dUTP incorporated in the synthesized complementary strand; 3' TTTTT single-stranded linker to array surface; dsDNA, one strand shown. The procedure, abridged: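 The binding signal is fluorescence intensity per feature, in arbitrary units, read on an Axon 4000B scanner. Polyhistidine- and DsRed-tagged transcription factors (N-terminal fusions) from E. coli BL21-CodonPlus were purified on Ni–NTA and applied at 200 nM for 1 h at 25 °C to a double-stranded, BSA-blocked custom Agilent array in buffer with 50 µM zinc acetate.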
Turning to “CATGGATATCTATAGCTCTCTAATCCATTGCCTCGTTTTTCGGAGTCACCTAGTGCAG”, the binding signal was 9380 fluorescence intensity (a.u.).

With “TATGCATGACTTCTTTTTATCAGCTGTCCGATCTATATAACGGAGTCACCTAGTGCAG”, the binding signal is 9530 fluorescence intensity (a.u.).

As to “AATTTGACACGAAAGCCTTCCTGTGCCTTTTTATGGTAATCGGAGTCACCTAGTGCAG”, the binding signal was 8920 fluorescence intensity (a.u.).

With “ACACCACTCTCTCGTTCTCTCTCTCTCTCCCCGTCTTCCTCGGAGTCACCTAGTGCAG”, the binding signal was 9440 fluorescence intensity (a.u.).

On to “CCATCAATCACCCCATCGATGCTTCTCCACCGGAGAAGTCCGGAGTCACCTAGTGCAG”, for which the binding signal is 8690 fluorescence intensity (a.u.).

As for “TGTATATAGGAAGTGTCTTTGCTCCATCTTACCTCCATTTCGGAGTCACCTAGTGCAG”, the binding signal was 9000 fluorescence intensity (a.u.).

On to “CTTCCAACACATTCTTAAGATTAACAAAGTCACTATTTTTCGGAGTCACCTAGTGCAG”, for which the binding signal is 8330 fluorescence intensity (a.u.).

Turning to “GGCGAGTGGCGGATTTGTTTTTGGTTTGTTTTTGAGTTTGCGGAGTCACCTAGTGCAG”, the binding signal is 9060 fluorescence intensity (a.u.).

“TGAACGATGCTTCGAATTTCTGACTTACACCAGCTTTGACCGGAGTCACCTAGTGCAG”: the binding signal is 8260 fluorescence intensity (a.u.).

On to “ATATATACTGTATTATCTTACTCCCTCCGTTCTATTTTGACGGAGTCACCTAGTGCAG”, for which the binding signal is 8330 fluorescence intensity (a.u.).

On to “CTGCTTATCACCATTATCTTTATGCTTGTGCTTATCAGCTCGGAGTCACCTAGTGCAG”, for which the binding signal is 9530 fluorescence intensity (a.u.).

As to “CTTGCCGCAAGACCACCGACCGTCGATTCCACGCCGCTCTCGGAGTCACCTAGTGCAG”, the binding signal is 8870 fluorescence intensity (a.u.).

Take “GCTCTGTCTGTGTGCGCCACGTACGTTATCGTCGACCGATCGGAGTCACCTAGTGCAG”: the binding signal is 9330 fluorescence intensity (a.u.).

“GGGTCGGTTTCTCTCTTGCTGTCTTCTCGATCGATCGATGCGGAGTCACCTAGTGCAG”: the binding signal is 20200 fluorescence intensity (a.u.).

With “CGTCATATTTGCACCGTTTGGGTAGGGTGGGGATGGGGTGCGGAGTCACCTAGTGCAG”, the binding signal is 18700 fluorescence intensity (a.u.).

With “CAACTAGGTTTTCGGCTACCGTTCTACACGGCCACACATGCGGAGTCACCTAGTGCAG”, the binding signal was 8820 fluorescence intensity (a.u.).

With “ACGAATGGTTAAACATGTGAGAAAAAGTCAACAGCGTCATCGGAGTCACCTAGTGCAG”, the binding signal is 9460 fluorescence intensity (a.u.).

With “GTTCTGTGATTTTTTGCTTACTTTTCTTGTTGTCTTGTTTCGGAGTCACCTAGTGCAG”, the binding signal is 9870 fluorescence intensity (a.u.).

With “TACGCCCACTCTTTTTTTTCTATGAGTTCTGCTGACACGTCGGAGTCACCTAGTGCAG”, the binding signal was 8240 fluorescence intensity (a.u.).

In the case of “GACATTTTTTTTTCCTTCAACGCGCGAAACCTTGCATGTCCGGAGTCACCTAGTGCAG”, the binding signal was 11700 fluorescence intensity (a.u.).

Take “TCGCAATTTCTCCTCTAACCATGCAATTAGTTTTTCATTTCGGAGTCACCTAGTGCAG”: the binding signal was 9490 fluorescence intensity (a.u.).

Turning to “AGACAGTGATGACTTGGTCCACTTTTTTCTCCTGGGTTAGCGGAGTCACCTAGTGCAG”, the binding signal is 8220 fluorescence intensity (a.u.).

Turning to “CGCCCACCTATCTTACCACTGACACATTGGCCCCACCACCCGGAGTCACCTAGTGCAG”, the binding signal is 8080 fluorescence intensity (a.u.).

For “TCGTGCGTGAGTTATGCTTCTTGAGTTTGCCCTTGCCTACCGGAGTCACCTAGTGCAG”, the binding signal was 9390 fluorescence intensity (a.u.).

“TCCCCGCGCCACCGCCGTCGCCGCCGCCCTCGACTACCGCCGGAGTCACCTAGTGCAG”: the binding signal was 8840 fluorescence intensity (a.u.).

As for “TCAGCAGCTGCTTCACACTCACACTGCCTCCTCTCTCTCTCGGAGTCACCTAGTGCAG”, the binding signal is 8550 fluorescence intensity (a.u.).

On to “TTATTACCCGTTGTTCTTTTGTTGCACGGTCGTGCCTTTCCGGAGTCACCTAGTGCAG”, for which the binding signal was 9590 fluorescence intensity (a.u.).

Turning to “CCCGTGTCTTGTGTGTTTCCATTCTCGCGAACCTTCCACACGGAGTCACCTAGTGCAG”, the binding signal is 9910 ± 264 fluorescence intensity (a.u.).

In the case of “GTTGGTGTTAGTCCCTGACATTGATTTTACGTTAGATATACGGAGTCACCTAGTGCAG”, the binding signal is 9750 fluorescence intensity (a.u.).

As to “GGGGTATTGTTACATTTTTTCCCCTCCCACAATGGTTTCTCGGAGTCACCTAGTGCAG”, the binding signal is 8580 fluorescence intensity (a.u.).

Take “TCCCCTGGTCTCTCGCTCTCTTCGCTCGCGGCGGCTTCTCCGGAGTCACCTAGTGCAG”: the binding signal was 11200 fluorescence intensity (a.u.).

With “CTCCTCCGCTTCCAATCCCCAAATCCCCATCCGCTATATCCGGAGTCACCTAGTGCAG”, the binding signal is 8540 fluorescence intensity (a.u.).

With “TTTTTTGGTTGGTTGCACTGATCGAGTGTGGTTACCTCTTCGGAGTCACCTAGTGCAG”, the binding signal was 9410 fluorescence intensity (a.u.).

On to “AGTCGATTAGTAGTTTCTTAAAGTAGTTCCTGATATTTTTCGGAGTCACCTAGTGCAG”, for which the binding signal was 8270 fluorescence intensity (a.u.).

Take “TGATTTTTGACCATTGCTTGGCTTCCTGGAGCTGTAATTGCGGAGTCACCTAGTGCAG”: the binding signal was 9470 fluorescence intensity (a.u.).

Take “GGAAAAAACTCTTCTATCTTTTACGGTAGTGCTACTCTCTCGGAGTCACCTAGTGCAG”: the binding signal was 8680 fluorescence intensity (a.u.).

As for “TTCCGTGTCCAATGTTTGACTGTCCGTCTTATATGAAATTCGGAGTCACCTAGTGCAG”, the binding signal is 9530 fluorescence intensity (a.u.).

Turning to “GTTTTTAGCCGCCGTAGTTTTTTAAGCTCCAGTTTCTTTTCGGAGTCACCTAGTGCAG”, the binding signal was 8150 fluorescence intensity (a.u.).

For the sequence “CGTATCCGTGTCTCGATCTGGGCCCCACCTGTCAGTGTCTCGGAGTCACCTAGTGCAG”, the binding signal was 12600 fluorescence intensity (a.u.).

Turning to “TCTCTCTCTCTCTCTTTCTCTGACTTCTTCTTTCTCAATTCGGAGTCACCTAGTGCAG”, the binding signal was 8700 fluorescence intensity (a.u.).

On to “CTCTTATTCCCTCTCTCTCTCTCCCTGTTGCCCAAGGAACCGGAGTCACCTAGTGCAG”, for which the binding signal was 10100 fluorescence intensity (a.u.).

As for “GTCCAGGATGCCTGTTATACCTCATTGTGCTGCACTGTCACGGAGTCACCTAGTGCAG”, the binding signal was 8120 fluorescence intensity (a.u.).

(Values after PMC7819943, “Rice protein-binding microarrays: a tool to detect cis-acting elements near promoter regions in rice”.)
